Experimental data as given in PubChem BioAssay AID504467 (National Center for Advancing Translational Sciences (NCATS), 2011).
Among all 330,000 compounds or so, about 7,700 (2.3%) were called active. Inconclusive results, whose numbers are uncertain, are shown with a selection of clear calls. The call rests on the fitted dose curve; in most records, active means well fitted inhibition curve with a large enough effect; inconclusive means small, poorly fitted or top-dose-only effect, or effect the other way; inactive means flat fitted curve, though single readings scatter. A potency beside an inconclusive call is a rough fit, not a confirmed value.

Experiment: qHTS screen for small molecules that inhibit ELG1-dependent DNA repair in human embryonic kidney (HEK293T) cells expressing luciferase-tagged ELG1; further: nearly all actives have a fitted effect of over 55% in size
Settings: HEK293T ELG1-luciferase reporter, luminescence, 16 h, DNA damage induced by 5-fluorouridine; activity change, negative = inhibition: at 46.1 µM (top of the series)
Outline: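 Overnight (16 hr) co-exposure of 2,000 cells/well to 5-fluorouridine and compound at 37 °C preceded detection. Luciferase was quantified via ONE-Glo luminescence; loss of signal denotes inhibition.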
On the % scale 0 is the no-effect control and ±100 the full control effect; potency means the concentration at half of the fitted maximal effect.

SMILES | Potency | activity change, negative = inhibition
Cc1ccc(C)c(S(=O)(=O)N2CCN(C(C(=O)Nc3ccc(F)cc3)c3ccccc3)CC2)c1 (configuration not stated) | inconclusive: 25.9 µM [inhibitor, single point] | 
CCN(CC)c1ccc(NC(=O)/C=C\c2ccccc2Cl)cc1 | inconclusive: 10.3 µM [activator, partial curve] | 
Cc1ccc(COc2ccc3c(c2)OCO3)cc1 | inconclusive: 20.6 µM [activator, partial curve] | 
COc1ccc(-c2csc(NC(=O)C3CCN(C(=O)c4ccc(F)cc4)CC3)n2)cc1OC | active: 14.6 µM | 
Cc1ccc(O)c(CNc2ccccn2)c1 | inconclusive: 20 µM [activator, single point] | 
COc1ccc(NC(=O)CSc2nnc(NC(=O)c3ccco3)s2)cc1 | inconclusive: 20.6 µM [activator, partial curve] | 
C/C(=N\NC(=O)c1nn(C)c(C)c1Br)c1cccc(NC(=O)c2ccc(F)cc2)c1 | inconclusive: 32.6 µM [inhibitor, single point] | 
O=C(NCc1ccco1)c1ccc(Br)s1 |  | inactive: -8.82%
O=C(NNC(=O)c1cccnc1SCc1cccc([N+](=O)[O-])c1)c1cccnc1 | inconclusive: 29.1 µM [inhibitor, single point] | 
COc1ccc(-n2c(=O)c(CCC(=O)N3CCN(c4ccccc4O)CC3)nc3ccccc32)cc1 | inconclusive: 29.1 µM [inhibitor, single point] | 
Cc1ccc(NC(=S)NCc2ccccc2)c(C)c1 | inconclusive: 8.2 µM [activator, partial curve, poor fit] | 
CCOc1ccc(C(=O)Nc2ccc(NC(=O)c3ccco3)c(Cl)c2)cc1Br |  | inactive: 0.118%
COc1cccc(-c2nnn(C/C(N)=N/O)n2)c1 | inconclusive: 16.4 µM [activator, single point] | 
O=C(CCCN1C(=O)c2cccc3cccc(c23)C1=O)N1CCN(c2ccccn2)CC1 | inconclusive: 20.6 µM [inhibitor, single point] | 
CC(=O)c1ccc(NC(=O)CN2c3cccc4cccc(c34)S2(=O)=O)cc1 | inconclusive: 23.1 µM [inhibitor, partial curve] | 
CC(=O)c1c(C)oc2ccc(OCc3ccccc3)cc12 | inconclusive: 23.1 µM [activator, partial curve] | 
Cc1cc(/C=C2/SC(=O)N(CC(=O)OC(C)C)C2=O)c(C)n1C | inconclusive: 7.31 µM [activator, partial curve] | 
Cc1nn(-c2ccccc2)c(Cl)c1/C=N/O |  | inactive: 4.57%
Cc1ccc(C)c(Cn2nnc3c(=O)[nH]c(C4CCCN(S(=O)(=O)Cc5ccccc5)C4)nc32)c1 (configuration not stated) |  | inactive: 5.33%
CCC(=O)N1CCN(c2ccccc2NC(=O)c2ccc(OC)c(Cl)c2)CC1 | inconclusive: 25.9 µM [inhibitor, partial curve, poor fit] | 
COc1ccc2[nH]c(=O)c(CN(Cc3cccs3)S(=O)(=O)c3cccc4nsnc34)cc2c1 | active: 1.3 µM | 

Exported tab-delimited: 2 of the compounds above.
SMILES	Potency	activity change, negative = inhibition
O=C(CCCN1C(=O)c2cccc3cccc(c23)C1=O)N1CCN(c2ccccn2)CC1	inconclusive: 20.6 µM [inhibitor, single point]	
CC(=O)c1ccc(NC(=O)CN2c3cccc4cccc(c34)S2(=O)=O)cc1	inconclusive: 23.1 µM [inhibitor, partial curve]	

Later entries.

SMILES | Potency | activity change, negative = inhibition
COc1ccc2cc(C(=O)C3CCCN(C(=O)CCc4ccccn4)C3)ccc2c1 (configuration not stated) | inconclusive: 16.4 µM [inhibitor, single point] | 
FC(F)(F)c1cccc(NC(=S)N2CCN(c3cccc(C(F)(F)F)c3)CC2)c1 |  | inactive: 15.5%
CC(=O)N1CCN(c2ccc(NC(=O)c3ccco3)cc2)CC1 | inconclusive: 16.4 µM [activator, partial curve] | 
Cc1ccc(NC(=O)CN(C)C(=O)CCCN2C(=O)c3ccccc3C2=O)cc1 |  | inconclusive: 73.3% [activator]
COc1ccc(S(=O)(=O)N2CCCCC2)cc1NC(=O)c1ccc(OC)c(OC)c1 | inconclusive: 0.184 µM [inhibitor, partial curve, poor fit] | 
CCNc1nc(NCC)nc(OCCNS(=O)(=O)c2cc(C)ccc2C)n1 | inconclusive: 35.5 µM [inhibitor, single point] | 
Cc1nn(CCCC(=O)N2CCN(c3ccc(F)cc3)CC2)c(C)c1[N+](=O)[O-] | inconclusive: 18.3 µM [inhibitor, single point] | 
CCOC(=O)Nc1ccc2c(c1)Nc1ccccc1S2 | inconclusive: 0.82 µM [inhibitor, partial curve, poor fit] | 
Cc1csc(NC(=O)CSc2nnc(Cn3c(=O)sc4ccccc43)n2-c2ccccc2)n1 | inconclusive: 20.6 µM [inhibitor, single point] | 
COC(=O)C1=C(C)Nc2c(c(=O)n(C)c(=O)n2C)C1c1ccc(C)cc1 (configuration not stated) | inconclusive: 23.1 µM [activator, partial curve, poor fit] | 
CC1(C)CC(=O)C(C(C2=C(O)CC(C)(C)CC2=O)c2ccc(Br)s2)C(=O)C1 (configuration not stated) |  | inactive: 13.6%
O=C1c2ccccc2N2C(=O)c3ccccc3[C@H]2N1c1ccccc1 | inconclusive: 29.1 µM [inhibitor, single point] | 
Cc1ccsc1C(=O)C1CCCN(Cc2cc(F)ccc2-n2cccn2)C1 (configuration not stated) | inconclusive: 29.1 µM [inhibitor, single point] | 
O/N=C/c1cn(-c2ccccc2)nn1 | inconclusive: 20.6 µM [activator, single point] | 
Fc1ccc(Nc2nc3ccccc3s2)cc1 | inconclusive: 13 µM [activator, partial curve] | 
C#Cc1ccc([C@H]2C=C(C(=O)NCc3ccccc3)O[C@@H](OCC)[C@@H]2CCCO)cc1 | inconclusive: 29.1 µM [inhibitor, single point] | 
Cc1ccc(S(=O)(=O)n2ccc3c2CCCC3=O)cc1 | inconclusive: 16.4 µM [activator, partial curve] | 
COc1ccc(OCc2nnc(SCC(=O)c3ccccc3)o2)cc1 |  | inactive: 6.32%
CCOC(=O)C1CCCN(c2cc(C)nc3cc(-c4ccc(F)cc4)nn23)C1 (configuration not stated) | inconclusive: 25.9 µM [inhibitor, single point] | 
COc1ccc2c(CC(=O)OCC(=O)Nc3cccc(C)c3)coc2c1 | inconclusive: 29.1 µM [activator, single point] | 
O=C(CN1C(=O)c2cccnc2C1=O)c1ccccc1 | inconclusive: 20.6 µM [activator, single point] | 
